The list shows a part of the results, in another mix than the full data. At the low end of the ranking the order means little.

39 sequences from publication PMC7862700 can be followed below.

In this experiment the target is T1, GABPA (UniProt Q06546).
T1 sequence: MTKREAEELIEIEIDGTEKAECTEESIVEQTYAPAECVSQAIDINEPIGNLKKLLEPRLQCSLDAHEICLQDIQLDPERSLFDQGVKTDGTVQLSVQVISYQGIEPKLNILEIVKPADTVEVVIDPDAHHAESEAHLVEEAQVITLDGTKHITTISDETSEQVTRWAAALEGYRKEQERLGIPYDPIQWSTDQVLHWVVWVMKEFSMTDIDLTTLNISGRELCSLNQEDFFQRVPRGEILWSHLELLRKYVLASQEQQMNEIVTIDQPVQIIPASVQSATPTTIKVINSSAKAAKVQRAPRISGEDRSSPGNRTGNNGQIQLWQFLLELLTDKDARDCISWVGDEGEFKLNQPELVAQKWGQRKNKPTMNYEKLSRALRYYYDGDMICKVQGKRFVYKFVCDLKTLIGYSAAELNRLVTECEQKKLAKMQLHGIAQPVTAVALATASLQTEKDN
The experiment can be described thus: DAPPL (digital affinity profiling via proximity ligation, sequencing). The conditions noted are these: 10 mM Tris-HCl pH 7.5, 50 mM NaCl, 1 mM DTT, 4% glycerol, room temperature, 30 min; GST-TFs on glutathione beads, 16-mer random dsDNA library, 0.1% …; high values mean tight binding; double strand, one strand shown; scale: fold enrichment (6-mer frequency, TF over GST control).
Consider GCATGC, for which the binding signal is 0.854. The sequence AGCCGT came in with a binding signal of 0.468. The same measure for GGCAGA: 0.668. Consider AGAGGG, for which the binding signal stood at 0.694.

ATCGAG: the binding signal turned out to be 0.862.

Take GGACCA: the binding signal turned out to be 0.77. The same measure for GTGATA: 0.729; for CGGTGT: 0.679.

Sequence GGTGGA yielded a binding signal of 0.608.

The sequence CGGGAG gave a binding signal of 0.198. For the sequence CCAGTT, the binding signal was 0.647. For TCGTAG the value was 0.823; for AGAGTT, 0.811; for AGGGGC, 0.745. The same measure for GACCAC: 0.845. For ATAGAG the value was 0.948; for GTCATC, 0.894; for GCGGTC, 0.632. For the sequence AGTAGT, the binding signal was 0.97. In turn, GGTCGG had a binding signal of 0.268. Regarding TCAGGG, the binding signal amounted to 0.778. The same measure for CAGTTA: 0.741; for CGTGTG: 0.438; for ACAGAG: 0.76.

Sequence GGGACT yielded a binding signal of 0.712. For GAGGTC the value was 0.612. For GGGACA the value was 0.674; for GGGGAA, 0.728.

GCACGT: the binding signal is 0.805. In turn, GGGTCT had a binding signal of 0.92. The same measure for GGCAGT: 0.563; for GCAGTG: 0.555.

For GGGATC, the binding signal turned out to be 0.649. For GAGAAG the value was 0.804; for AGGGAG, 0.342. The same measure for AGGTTG: 0.733. Sequence CCGTGG displayed a binding signal of 0.42.

In turn, AGATCG came in with a binding signal of 0.477.

For AGAGTC, the binding signal is 0.479.
